This test addresses Flag-3D of CVB3 (RNA-dependent RNA polymerase 3D^pol of Coxsackievirus B3) (Coxsackievirus B3). The test can be described thus: co-IP; HEK293T cells transfected with the indicated plasmids for 48 h; lysate (NP40 lysis buffer) on anti-Flag magnetic beads, mouse IgG as control; immunoblot; the legend calls it 'denatured Co-IP'. (In western blotting, separated proteins are transferred to a membrane and probed.)

We go through one molecule from publication PMC12646006.

No constants are given. Whether binding was seen depends on the method and setting. Binding seen in cells or lysates may run through a third protein. Binding can be weak; no strength is given. Where a sequence is shown, tags or fusion partners need not be part of it.

B1: HA-TRIM4 (tripartite motif 4, E3 ligase) (enzyme, UniProt Q9C037 1-500)
chain: MEAEDIQEELTCPICLDYFQDPVSIECGHNFCRGCLHRNWAPGGGPFPCPECRHPSAPAALRPNWALARLTEKTQRRRLGPVPPGLCGRHWEPLRLFCEDDQRPVCLVCRESQEHQTHAMAPIDEAFESYRTGNFDIHVDEWKRRLIRLLLYHFKQEEKLLKSQRNLVAKMKKVMHLQDVEVKNATQWKDKIKSQRMRISTEFSKLHNFLVEEEDLFLQRLNKEEEETKKKLNENTLKLNQTIASLKKLILEVGEKSQAPTLELLQNPKEVLTRSEIQDVNYSLEAVKVKTVCQIPLMKEMLKRFQVAVNLAEDTAHPKLVFSQEGRYVKNTASASSWPVFSSAWNYFAGWRNPQKTAFVERFQHLPCVLGKNVFTSGKHYWEVESRDSLEVAVGVCREDVMGITDRSKMSPDVGIWAIYWSAAGYWPLIGFPGTPTQQEPALHRVGVYLDRGTGNVSFYSAVDGVHLHTFSCSSVSRLRPFFWLSPLASLVIPPVTDRK
On to B1, for which the binding result was “binds”.
